Experimental data reported in the supplement of paper PMC12823440, “Inhibitors supercharge kinase turnover through native proteolytic circuits” (Nature, 2025).
Structures can show the parent of a compound that is named as a salt. Some of the results follow. Hit calls seldom repeat between salt and free forms of one compound.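 Kinases, fused to nanoluciferase, were expressed in K562 cells; luminescence was measured every 4 h from 2 to 18 h as percent of control (DMSO = 100%, positive control = 0%). A time point is decreased if signal falls significantly (2 sigma). Hits were called by the authors by a rule that is not shown; the count of time points alone does not decide it.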

The chains behind the UniProt entries cited, without tags or fusion partners. Where a name states a change or a piece, a line headed by the entry shows the natural chain unless it says otherwise.
UniProt Q92630: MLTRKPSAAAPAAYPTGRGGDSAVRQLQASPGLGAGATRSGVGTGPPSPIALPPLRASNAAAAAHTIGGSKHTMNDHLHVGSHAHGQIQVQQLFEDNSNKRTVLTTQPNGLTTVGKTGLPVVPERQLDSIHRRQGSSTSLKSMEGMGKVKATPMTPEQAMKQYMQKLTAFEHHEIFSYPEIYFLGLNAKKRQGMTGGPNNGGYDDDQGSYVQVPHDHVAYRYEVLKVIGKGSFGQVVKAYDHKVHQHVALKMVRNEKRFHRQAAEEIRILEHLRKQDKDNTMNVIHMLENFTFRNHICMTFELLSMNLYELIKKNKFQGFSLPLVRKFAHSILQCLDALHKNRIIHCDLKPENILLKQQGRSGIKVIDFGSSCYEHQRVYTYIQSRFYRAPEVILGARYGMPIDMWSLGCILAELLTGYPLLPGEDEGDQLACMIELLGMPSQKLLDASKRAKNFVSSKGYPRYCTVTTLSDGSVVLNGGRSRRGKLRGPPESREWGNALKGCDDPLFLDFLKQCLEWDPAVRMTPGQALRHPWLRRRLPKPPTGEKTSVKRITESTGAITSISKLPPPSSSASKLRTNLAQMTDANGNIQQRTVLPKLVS

Molecular target: DYRK2 (UniProt Q92630)
Test: kinase-Nluc reporter destabilization hit call (1 = scored as downregulated) (binary); higher = compound decreases kinase abundance
Settings: 10 µM; K562; 2-18 h

kinase-Nluc reporter destabilization hit call, inactive:
OCCn1cc(-c2cnc3nnn(Cc4ccc5ncccc5c4)c3n2)cn1 0, CCN(CC)CC(=O)Nc1c(C)cccc1C [Lidocaine] 0, CCS(=O)(=O)N1CCN(c2ccc(Nc3ncc(C(N)=O)c(NC4CC4)n3)cc2)CC1 [Cerdulatinib] 0, C#Cc1cccc(Nc2ncnc3cc(OCCOC)c(OCCOC)cc23)c1 [Erlotinib (Hydrochloride)] 0, O=C(c1ccc(F)c(F)c1Nc1ccc(I)cc1F)N1CC(O)([C@@H]2CCCCN2)C1 [Cobimetinib] 0, CC(C)(C)n1nc(-c2cccc3ccccc23)c2c(N)ncnc21 [1-Naphthyl PP1 (hydrochloride)] 0, CC(=O)c1c(C)c2cnc(Nc3ccc(N4CCNCC4)cn3)nc2n(C2CCCC2)c1=O [Palbociclib (isethionate)] 0
